Results published in PubChem BioAssay AID504467 (National Center for Advancing Translational Sciences (NCATS), 2011).
Screen size: about 330,000 compounds; about 7,700 (2.3%) were called active. Inconclusive results, whose numbers are uncertain, are shown with a selection of clear calls. Calls come from the whole dose curve; as a rule, active = well fitted inhibition curve with a large enough effect; inconclusive = small, poorly fitted or top-dose-only effect, or effect the other way; inactive = flat fitted curve, though single readings scatter. A potency beside an inconclusive call is a rough fit, not a confirmed value.

Test: qHTS screen for small molecules that inhibit ELG1-dependent DNA repair in human embryonic kidney (HEK293T) cells expressing luciferase-tagged ELG1; note: nearly all actives have a fitted effect of over 55% in size
Conditions: HEK293T ELG1-luciferase reporter, luminescence, 16 h, DNA damage induced by 5-fluorouridine; activity change, negative = inhibition: at 46.1 µM (top of the series)
How it was run: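 Step one: seed 2,000 cells per well. Step two: pin-transfer compound or DMSO alongside 5-fluorouridine. Step three: incubate 16 hr, 37 °C, 5% CO2. Step four: add ONE-Glo, wait 30 min, read luminescence.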
% is set by controls: 0 for no effect and ±100 for the full control effect; potency is the fitted concentration of half-maximal effect.

| Compound | Potency | activity change, negative = inhibition |
| --- | --- | --- |
| COc1cc(C=O)c(Br)cc1OCC(=O)NCc1ccccc1 | inconclusive: 4.61 µM [inhibitor, partial curve, poor fit] |  |
| COc1ccc(CCNC(=O)c2cc3c(C)nccc3[nH]c2=O)cc1OC | inconclusive: 29.1 µM [inhibitor, single point] |  |
| CCOC(=O)c1c(NC(=O)CSc2ncnc3ccccc23)sc(C)c1C | active: 11.6 µM |  |
| CS(=O)(=O)c1ccc(C(=O)OCC(=O)NNC(=O)COc2ccc(Cl)cc2)cc1 | inconclusive: 20.6 µM [inhibitor, single point] |  |
| COc1ccc(NC(=S)N(CCCN2CCCC2)Cc2ccco2)cc1 |  | inactive: -0.439% |
| CN(C)c1ccc(NC(=O)c2ccc3nc[nH]c3c2)cc1 | inconclusive: 11.6 µM [activator, partial curve] |  |
| Cc1ccc(OCCCCn2cnc3ccccc32)cc1 | inconclusive: 6.51 µM [inhibitor, single point] |  |
| NC(=O)COC(=O)c1cc(S(=O)(=O)N2CCN(c3ccccc3)CC2)ccc1Cl | inconclusive: 29.1 µM [activator, partial curve, poor fit] |  |
| O=C(Nc1cc(F)c(Br)cc1F)c1ccc(Cl)cc1 | inconclusive: 16.4 µM [activator, partial curve] |  |
| CC(C)(C)c1nc(S(=O)(=O)c2ccc(Cl)cc2)c(N2CCOCC2)o1 |  | inactive: 0% |
| O=C(O)c1ccc(N2C(=O)c3ccc(C(=O)c4cccc([N+](=O)[O-])c4)cc3C2=O)cc1 |  | inactive: 5.77% |
| COc1ccc(CNC(=O)CN(c2ccc(C)cc2)S(=O)(=O)c2c(C)noc2C)cc1 |  | inactive: 0.536% |
| O=C(Cn1cc2c(n1)CCCCC2)N1CCc2ccccc21 | inconclusive: 14.6 µM [activator, partial curve] |  |
| O=S(=O)(c1ccccc1)c1nc(-c2ccccc2)oc1N1CCOCC1 |  | inactive: 12.1% |
| O=C(Nc1cccc(C(=O)O)c1)Nc1ccc2c(c1)OCO2 | active: 2.59 µM |  |
| CC1=Nc2ccccc2N=C(NC(=O)CN2CCN(c3ccc(F)cc3)CC2)C1c1ccccc1 (stereo not given) |  | inactive: 2.13% |
| c1ccc(-c2nc(-c3cccs3)[nH]c2-c2ccccc2)cc1 | inconclusive: 20.6 µM [inhibitor, single point] |  |
| CC(c1ccccc1)N1CC(C(=O)Nc2nccs2)CC1=O (stereo not given) |  | inactive: 1.88% |
| Cc1ccc2nc(Cl)c3cc(C(=O)NCCCN4CCCC4)sc3c2c1 | inconclusive: 20.6 µM [activator, single point] |  |
| CC1CCC(NC(=O)CN2C(=O)COc3ccc(S(=O)(=O)N4CCCC4)cc32)CC1 (stereo not given) | inconclusive: 14.6 µM [activator, single point] |  |
| COc1cccc(-c2cc(C(=O)NCCCN3CCOCC3)no2)c1 |  | inactive: 19.2% |
| Cc1cc(-c2nnc(SCC(=O)Nc3nc(-c4ccc(Cl)cc4)cs3)o2)no1 |  | inactive: 2.17% |
| COc1ccccc1OCC(=O)N(Cc1nc(-c2ccccc2)no1)C1CCCCC1 | inconclusive: 20.6 µM [inhibitor, single point] |  |

Quoted at random: 3 records from the list

| Compound | Potency | activity change, negative = inhibition |
| --- | --- | --- |
| CCOC(=O)c1c(NC(=O)CSc2ncnc3ccccc23)sc(C)c1C | active: 11.6 µM |  |
| COc1ccc(CCNC(=O)c2cc3c(C)nccc3[nH]c2=O)cc1OC | inconclusive: 29.1 µM [inhibitor, single point] |  |
| COc1ccccc1OCC(=O)N(Cc1nc(-c2ccccc2)no1)C1CCCCC1 | inconclusive: 20.6 µM [inhibitor, single point] |  |

(more compounds)

| Compound | Potency | activity change, negative = inhibition |
| --- | --- | --- |
| COc1cc(CNC2CCCCCCC2)ccc1OCC(N)=O | inconclusive: 0.355 µM [inhibitor, partial curve, poor fit] |  |
| Nc1ccc(C(=O)N/N=C/c2c[nH]c3ccccc23)cc1 |  | inactive: 18.7% |
| Cc1cc(C)cc(NS(=O)(=O)c2ccc(NC(=S)NC(=O)c3ccc(Br)o3)cc2)c1 | inconclusive: 20.6 µM [inhibitor, single point] |  |
| O=C(CSc1nnc(-c2ccccc2)c2ccccc12)NCC1CCCO1 (stereo not given) |  | inactive: 22.8% |
| COCCNC(=O)/C(C#N)=C\c1ccc(CNC(=O)C(=O)Nc2ccc(C)c(C)c2)o1 | inconclusive: 29.1 µM [inhibitor, single point] |  |
| Cc1c(-c2ccccc2)[nH]n2c(=O)c3c(nc12)CCCC3 | inconclusive: 16.4 µM [activator, partial curve] |  |
| COc1cc(O)c(CC=C(C)C)c(O)c1C(=O)CCc1ccc(O)cc1 |  | inactive: 14.1% |
| CCN(CC)c1cc(C)c2cc(NC(=O)c3cccs3)ccc2n1 | inconclusive: 16.4 µM [inhibitor, partial curve] |  |
| CN1CCN(c2nc(-c3ccccc3)nc3c2oc2ccccc23)CC1 |  | inactive: 0.503% |
| O=C(Nc1ccc2c(c1)OCO2)c1ccc[n+]([O-])c1 | inconclusive: 9.2 µM [activator, partial curve, poor fit] |  |
| C/C=C/Cn1c(N2CCCCCC2)nc2c1c(=O)[nH]c(=O)n2C |  | inactive: 0.189% |
| COc1ccc(N2CCN(S(=O)(=O)c3ccc(-c4cc(C)no4)s3)CC2)cc1 | inconclusive: 16.4 µM [activator, single point] |  |
| CC1CCc2c(sc(NC(=O)Cn3nc(C(=O)O)c4ccccc4c3=O)c2C#N)C1 (stereo not given) | inconclusive: 20.6 µM [activator, partial curve, poor fit] |  |
| CC(=O)N1CCC(=NNc2nc3ccccc3s2)CC1 | inconclusive: 20.6 µM [activator, partial curve] |  |
| CC(C)(C)C(=O)NC1=NCCS1 |  | inactive: 0.717% |
| Cc1cccc(CNC(=O)c2ccc3nc(Cc4ccccc4F)oc3c2)n1 | inconclusive: 16.4 µM [activator, partial curve] |  |
| Cc1cccc(NC(=O)CSc2nnc(NC(=O)c3ccc(S(=O)(=O)N4CCOCC4)cc3)s2)c1C | inconclusive: 10.3 µM [activator, partial curve, poor fit] |  |
| C=CCOc1ccccc1CNc1ccc2c(c1)OCCO2 | inconclusive: 1.83 µM [activator, full curve] |  |
| COc1ccccc1CCNC(=O)C(=O)NCCC1CCCCN1S(=O)(=O)c1ccccc1 (stereo not given) | inconclusive: 23.1 µM [inhibitor, single point] |  |
| Clc1cccc(CN2CCc3c([nH]c4ccccc34)C2)c1 | inconclusive: 29.1 µM [inhibitor, single point] |  |
| COC(=O)C1=CN(c2cccc(Cl)c2)C=C(C(=O)OC)C1c1cccc(OC)c1 | inconclusive: 23.1 µM [inhibitor, single point] |  |
| Cc1noc(C)c1COC(=O)c1ccc2c(c1)OCO2 | inconclusive: 18.4 µM [activator, single point] |  |
